Measurements published in PMC10584882 (Communications Biology, 2023).
Several values for one entry are separate records, joined by “and”; a condition that tells them apart may be missing. Identical values can stand only once. This continues a long series; more values of the same kind are listed elsewhere.

Sequences of proteins named here, by UniProt entry; tags and fusion partners are left off. Residues count along the entry.
UniProt O60911, 114-334: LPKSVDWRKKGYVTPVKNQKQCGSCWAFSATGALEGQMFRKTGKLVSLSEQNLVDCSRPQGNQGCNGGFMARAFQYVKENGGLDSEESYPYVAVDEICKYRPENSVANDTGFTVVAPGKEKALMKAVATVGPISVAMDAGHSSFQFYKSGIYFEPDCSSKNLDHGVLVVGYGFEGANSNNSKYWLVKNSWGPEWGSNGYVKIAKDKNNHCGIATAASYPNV
UniProt P07711, 114-333: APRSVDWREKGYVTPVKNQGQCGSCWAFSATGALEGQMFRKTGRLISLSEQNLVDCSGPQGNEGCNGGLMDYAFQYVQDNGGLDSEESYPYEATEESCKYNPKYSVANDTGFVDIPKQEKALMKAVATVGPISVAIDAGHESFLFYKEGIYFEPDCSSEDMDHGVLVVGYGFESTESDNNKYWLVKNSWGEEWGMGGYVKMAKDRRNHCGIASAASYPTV

Assays:
human CatV = target: T1, human CatV (Homo sapiens, UniProt O60911); assay: Cathepsin inhibition test, CatV; assay type: biochemical; conditions: Fig. S3 panel c, single replicates
T1 construct: made in house

CatL = target: T2, CatL (Homo sapiens, UniProt P07711); assay: Cathepsin inhibition test, CatL; assay type: biochemical; conditions: Fig. S3 panel b, single replicates
T2 construct: made in house

[1] = inhibitor 11.547 nM, 0.011547 µM
[2] = inhibitor 20.833 nM, 0.020833 µM
[3] = inhibitor 3.572 nM, 0.003572 µM

| Compound | Residual activity (Vi/V0) (human CatV; [1]) | Residual activity (Vi/V0) (human CatV; [2]) | Residual activity (Vi/V0) (human CatV; inhibitor 37.500 nM, 0.0375 µM) | Residual activity (Vi/V0) (CatL; [3]) | Residual activity (Vi/V0) (CatL; inhibitor 6.430 nM, 0.00643 µM) | Residual activity (Vi/V0) (CatL; [1]) | Residual activity (Vi/V0) (CatL; [2]) | Residual activity (Vi/V0) (CatL; inhibitor 37.500 nM, 0.0375 µM) | Residual activity (Vi/V0) (CatL; inhibitor 0.010 nM, 10 pM) | Residual activity (Vi/V0) (CatL; inhibitor 0.018 nM, 18 pM) | Residual activity (Vi/V0) (CatL; inhibitor 0.032 nM, 32 pM) | Residual activity (Vi/V0) (CatL; inhibitor 0.058 nM, 58 pM) | Residual activity (Vi/V0) (CatL; inhibitor 0.105 nM, 0.000105 µM) |
| --- | --- | --- | --- | --- | --- | --- | --- | --- | --- | --- | --- | --- | --- |
| CCCC[C@@H](C=O)NC(=O)[C@H](CC(C)C)NC(=O)OCc1ccccc1 [Calpeptin, reference compound] | 0.007708 and 0.004048 and 0.004391 and 0.0067 | 0.001343 and -0.0003071 and -0.009431 and 0.0008856 and -0.01566 and -0.0003115 and 0.002893 and 0.00231 | 0.0003966 and -0.001731 and -0.01716 and -0.005778 and -0.01402 and 0.0005488 and 0.0007574 and -0.0002626 | 0.2673 and 0.1573 and 0.07789 and 0.0829 and 0.0678 and 0.2658 and 0.274 and 0.3023 and 0.2407 and 0.2327 | 0.152 and 0.0831 and 0.04517 and 0.05425 and 0.04055 and 0.1409 and 0.1492 and 0.1695 and 0.134 and 0.1301 | 0.08926 and 0.05156 and 0.02533 and 0.02926 and 0.02292 and 0.07631 and 0.08599 and 0.09018 and 0.08677 and 0.08979 | 0.04987 and 0.02764 and 0.01362 and 0.01575 and 0.01309 and 0.03382 and 0.0383 and 0.04074 and 0.04802 and 0.04395 | 0.02466 and 0.01627 and 0.006646 and 0.007283 and 0.007039 and 0.01136 and 0.01135 and 0.01282 and 0.02318 and 0.02103 | – | – | – | – | – |
| CC(C)C[C@H](NC(=O)OCc1ccccc1)C(=O)N[C@@H](C[C@@H]1CCNC1=O)C(O)S(=O)(=O)[O-].[Na+] (stereo partly drawn) [GC376] | – | – | – | – | – | – | – | – | 1.089 and 0.8692 and 0.9179 and 0.9228 and 0.8369 and 1.086 and 1.123 and 1.046 and 1.0259 and 1.005 | 0.9553 and 0.9484 and 1.0727 and 1.068 and 0.9415 and 1.131 and 1.088 and 1.073 and 0.9373 and 0.8527 | 1.037 and 1.081 and 0.872 and 1.194 and 0.9422 and 1.08 and 1.038 and 1.012 and 0.9811 and 0.9498 | 0.9641 and 1.034 and 0.6771 and 0.5503 and 0.8658 and 0.999 and 0.9682 and 0.994 and 0.9336 and 0.8475 | 0.9847 and 0.9836 and 0.6793 and 1.048 and 0.6659 and 0.9278 and 0.8304 and 0.852 and 0.9152 and 0.8608 |
| CCCC[C@H](NC(=O)[C@H](CC(C)C)NC(=O)OCc1ccccc1)C(O)S(=O)(=O)[O-].[Na+] (stereo partly drawn) [S-Calpeptin] | 0.004945 and 0.003584 and 0.005378 and -0.00403 | 0.001195 and 0.001884 and -0.002638 and -0.002918 and -0.001742 and 0.001358 and 0.001548 and -0.0005112 | 0.0004098 and 0.001527 and -0.005425 and -0.003547 and -0.002661 and 0.000704 and -4.377e-6 and -0.001086 | 0.1889 and 0.1126 and 0.0816 and 0.08564 and 0.07888 and 0.0994 and 0.09654 and 0.1053 and 0.1351 and 0.192 | 0.09023 and 0.06878 and 0.04852 and 0.04603 and 0.04406 and 0.1447 and 0.1542 and 0.1761 and 0.07136 and 0.1053 | 0.04311 and 0.03488 and 0.01135 and 0.02572 and 0.02465 and 0.07778 and 0.08512 and 0.08561 and 0.03388 and 0.04663 | 0.02055 and 0.02241 and 0.01478 and 0.0143 and 0.01359 and 0.03507 and 0.03462 and 0.03799 and 0.01516 and 0.02508 | 0.007548 and 0.01281 and 0.01038 and 0.007111 and 0.007493 and 0.01335 and 0.01353 and 0.01428 and 0.001427 and 0.007719 | – | – | – | – | – |
